PubChem BioAssay AID602196, INSERM, 2012

- Screen: 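Genes whose knock-down alters cisplatin killing of lung cancer cells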
- Cell system: human A549 lung cancer cells
- Knock-down reagent: siRNA pair against human genes
- Duration: 48 h transfection before cisplatin; time from cisplatin to read-out not stated
- Challenge: cisplatin at a dose killing half of control-siRNA cells; exact dose and duration not given
- Measurement: 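Shift in cisplatin death relative to control siRNA, from -50 (all cells die) to +50 (no cells die); siRNAs harmful on their own scored 0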
- Reading the numbers: two-siRNA summed score (-2 to +2): higher = both siRNAs protect from cisplatin killing; -2 means both sensitise
- Call rule: 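Each siRNA scores 0 if harmful alone by LDH or WST-1, otherwise +1 if it reduces and -1 if it increases cisplatin killing; a gene is active when both siRNAs agree (sum +2 or -2)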
- Calls: active = both siRNAs shift cisplatin killing the same way; inactive = no consistent shift, or siRNA harmful alone
The deposit covers about 23,000 reagents; shown is a part drawn at random. 455 of them (2%) were called active. 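Active includes both protection and sensitisation; some change values fall well beyond the stated -50 to +50 range.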 Not all columns of the deposit are shown. No sequences are given here. The record does not give: the amount of reagent.

For GBP3, the values are two-siRNA summed score (-2 to +2) = 1; inactive. Knock-down of MLLT3 resulted in: two-siRNA summed score (-2 to +2) = 0; inactive. FAM184A gave two-siRNA summed score (-2 to +2) = 0; inactive. Knock-down of LOC400145 gave: two-siRNA summed score (-2 to +2) = 0; inactive. With knock-down of LOC439975, the screen gave two-siRNA summed score (-2 to +2) = 0; inactive. LOC441167 (retired record) scored two-siRNA summed score (-2 to +2) = 1; inactive.

For DHPS, the values are two-siRNA summed score (-2 to +2) = 0; inactive. With knock-down of AGGF1 the results were two-siRNA summed score (-2 to +2) = 0; inactive. Silencing of RAB15 resulted in: two-siRNA summed score (-2 to +2) = 0; inactive. LOC442573 gave two-siRNA summed score (-2 to +2) = 1; inactive. Depletion of LOC441169 came out at: two-siRNA summed score (-2 to +2) = 1; inactive. Silencing of ZNF488 gave: two-siRNA summed score (-2 to +2) = 0; inactive.

Depletion of SCD gave: two-siRNA summed score (-2 to +2) = 1; inactive. RHCG showed two-siRNA summed score (-2 to +2) = 0; inactive. For IGSF21, the values are two-siRNA summed score (-2 to +2) = 0; inactive. With knock-down of ABCA16P, the record shows two-siRNA summed score (-2 to +2) = 1; inactive. PCSK4 showed two-siRNA summed score (-2 to +2) = 0; inactive. For EEF1A1P47 the deposit lists two-siRNA summed score (-2 to +2) = 1; inactive.

FDCSP showed two-siRNA summed score (-2 to +2) = -1; inactive. LOC402184 scored two-siRNA summed score (-2 to +2) = 1; inactive. After knock-down of LOC441773, the record shows two-siRNA summed score (-2 to +2) = 0; inactive.

Reprinted from the listing, 2 entries:
LOC439975 | two-siRNA summed score (-2 to +2): 0; Outcome: inactive
LOC441167 (retired record) | two-siRNA summed score (-2 to +2): 1; Outcome: inactive
